Values from PubChem BioAssay AID1259424 (University of Nebraska Medical Center, 2018)

Test: 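Rank knockdowns across the genome by resemblance to the KSR1 depletion profile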 (primary screen)
System: human HCT116 colon cancer cells
Reagent: siRNA pool against human genes, 50 nM
Measurement: 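Log2 levels of six mRNAs (branched-DNA multiplex), adjusted by two reference genes and the non-targeting median, then scored against the average KSR1 knockdown pattern as Pearson r and euclidean distance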
Scale: mean correlation with KSR1 profile and KSR1 correlation: higher = expression change more like KSR1 knockdown; mean distance from KSR1 profile: higher = expression change less like KSR1 knockdown
This is a random part of about 14,000 deposited reagents. 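Higher correlation or smaller distance means closer resemblance to KSR1 loss; control wells, including KSR1 knockdowns, recur on many plates.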 Not given: the time to read-out.

gene	mean correlation with KSR1 profile	mean distance from KSR1 profile	KSR1 correlation, replicate 1	KSR1 correlation, replicate 2	KSR1 correlation, replicate 3
ABHD11	0.188	2.98	0.35	0.105	-0.115
CGREF1	0.254	1.43	0.00841	0.627	0.0941
MME	-0.381	2.22	-0.782	-0.622	-0.25
LRRC17	-0.322	1.84	-0.631	-0.301	-0.183
CDC16	-0.113	1.88	-0.046	0.0743	-0.28
ERLEC1	-0.594	3.42	-0.502	-0.545	-0.647
MGARP	-0.0168	1.89	-0.234	0.0832	-0.18
TAS2R40	0.554	1.71	0.627	0.627	0.588
SYF2	-0.8	1.89	-0.713	-0.562	-0.948
LBH	0.374	3.55	0.324	0.341	0.196
RPL7A	0.712	2.44	0.77	0.761	0.467
RDH8	0.492	1.65	0.657	0.315	0.503
MT4	0.883	0.974	0.849	0.604	-0.21
SLC6A2	0.307	2.21	0.253	0.355	0.472
IPO4	0.409	1.87	0.477	0.647	0.216
DUSP16	-0.28	1.82	-0.255	-0.363	-0.221
APOO	-0.161	3.35	-0.43	-0.262	-0.0779
REEP5	0.399	1.98	0.301	0.296	0.584
NOP16	-0.527	2.75	-0.633	-0.214	-0.144
UBA3	-0.0682	2.42	0.0188	-0.153	-0.146
FNTB	0.496	2.28	0.22	0.459	0.352
HNRNPK	-0.0934	2.38	-0.221	-0.199	-0.226
MTTP	0.0652	0.931	-0.0263	-0.235	0.255
LDLRAP1	0.53	0.941	0.399	0.568	0.574
REX1BD	0.44	1.43	0.349	0.378	0.436
PPTC7	-0.0974	3.48	-0.00416	-0.346	-0.128
SKIL	-0.251	3.18	-0.131	-0.119	-0.301
RABEP1	-0.064	2.04	0.0169	0.00266	-0.0804
TMCO6	-0.835	2.82	-0.668	-0.776	-0.771
RNF32	0.566	0.897	0.435	0.345	0.758
UBL5	-0.445	3.19	-0.252	-0.397	-0.552
MTX2	-0.159	3.23	-0.302	-0.0392	-0.0684
IGDCC4	0.315	1	-0.00824	0.587	0.305
WDR46	0.0218	3.66	0.0282	-0.0186	0.142

4 of these entries, reformatted.
gene,mean correlation with KSR1 profile,mean distance from KSR1 profile,"KSR1 correlation, replicate 1","KSR1 correlation, replicate 2","KSR1 correlation, replicate 3"
CDC16,-0.113,1.88,-0.046,0.0743,-0.28
ERLEC1,-0.594,3.42,-0.502,-0.545,-0.647
MGARP,-0.0168,1.89,-0.234,0.0832,-0.18
TAS2R40,0.554,1.71,0.627,0.627,0.588
